Measured values from paper doi:10.1101/2023.03.27.534359.
No constants are given. Whether binding was seen depends on the method and setting. In cells and extracts the contact can be indirect. Where a sequence is shown, tags or fusion partners need not be part of it.

Protein sequences, listed by entry. Tags and fused reporters are not part of them. Lines headed by an entry give the natural chain unless they say otherwise; changes in a name come on top.
UniProt P09471: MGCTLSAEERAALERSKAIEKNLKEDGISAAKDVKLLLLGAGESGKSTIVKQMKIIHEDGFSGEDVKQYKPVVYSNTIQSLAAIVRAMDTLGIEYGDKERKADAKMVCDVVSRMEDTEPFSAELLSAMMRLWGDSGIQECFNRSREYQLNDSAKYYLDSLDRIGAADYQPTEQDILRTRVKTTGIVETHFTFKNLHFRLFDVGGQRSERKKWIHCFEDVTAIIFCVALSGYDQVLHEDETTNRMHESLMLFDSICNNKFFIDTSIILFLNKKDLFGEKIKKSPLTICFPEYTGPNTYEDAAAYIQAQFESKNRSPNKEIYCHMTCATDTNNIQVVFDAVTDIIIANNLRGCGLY

Columns and labels:
Assay in all cases: co-IP
Gαo-GFP G40R (human) = Gαo-GFP G40R (human) (UniProt P09471)
Gαo-GFP E237K (human) = Gαo-GFP E237K (human) (UniProt P09471)
Gαo-GFP G45E (human) = Gαo-GFP G45E (human) (UniProt P09471)
Gαo-GFP I279N (human) = Gαo-GFP I279N (human) (UniProt P09471)
Gαo-GFP N270H (human) = Gαo-GFP N270H (human) (UniProt P09471)
Gαo-GFP L199P (human) = Gαo-GFP L199P (human) (UniProt P09471)
Gαo-GFP A227V (human) = Gαo-GFP A227V (human) (UniProt P09471)
Gαo-GFP Y231C (human) = Gαo-GFP Y231C (human) (UniProt P09471)
Gαo-GFP Q233P (human) = Gαo-GFP Q233P (human) (UniProt P09471)
Gαo-GFP C215Y (human) = Gαo-GFP C215Y (human) (UniProt P09471)
Gαo-GFP D174G (human) = Gαo-GFP D174G (human) (UniProt P09471)
Gαo-GFP S47G (human) = Gαo-GFP S47G (human) (UniProt P09471)
Gαo-GFP F275S (human) = Gαo-GFP F275S (human) (UniProt P09471)
[1] = molecular target: Gαo-GFP R209C (human), P09471; conditions: remark: other sources report otherwise
[2] = molecular target: Gαo-GFP G203R (human), P09471; conditions: remark: other sources report otherwise
[3] = molecular target: Gαo-GFP E246K (human), P09471; conditions: remark: other sources report otherwise

Measured: binding

B1: His6-tagged RGS19 (protein, UniProt P49795 1-217)
chain: MPTPHEAEKQITGPEEADRPPSMSSHDTASPAAPSRNPCCLCWCCCCSCSWNQERRRAWQASRESKLQPLPSCEVCATPSPEEVQSWAQSFDKLMHSPAGRSVFRAFLRTEYSEENMLFWLACEELKAEANQHVVDEKARLIYEDYVSILSPKEVSLDSRVREGINKKMQEPSAHTFDDAQLQIYTLMHRDSYPRFLSSPTYRALLLQGPSQSSSEA
not listed: [1] | [2] | [3]
no binding: all other assays above

B2: His6-tagged RGS19, P49795 1-217 (protein)
chain: MPTPHEAEKQITGPEEADRPPSMSSHDTASPAAPSRNPCCLCWCCCCSCSWNQERRRAWQASRESKLQPLPSCEVCATPSPEEVQSWAQSFDKLMHSPAGRSVFRAFLRTEYSEENMLFWLACEELKAEANQHVVDEKARLIYEDYVSILSPKEVSLDSRVREGINKKMQEPSAHTFDDAQLQIYTLMHRDSYPRFLSSPTYRALLLQGPSQSSSEA
no binding: [1] | [2] | [3]
